Reference: patent US20160046678A1 (ZYNGENIA, published 2016)
These are yes or no findings as the source states them, for the method shown. Some binding calls cover weakened binding; strength is not graded here.

Amino acid sequences for entries named in this document (tags omitted). Residues count along the entry.
UniProt P21860, residues 20-643: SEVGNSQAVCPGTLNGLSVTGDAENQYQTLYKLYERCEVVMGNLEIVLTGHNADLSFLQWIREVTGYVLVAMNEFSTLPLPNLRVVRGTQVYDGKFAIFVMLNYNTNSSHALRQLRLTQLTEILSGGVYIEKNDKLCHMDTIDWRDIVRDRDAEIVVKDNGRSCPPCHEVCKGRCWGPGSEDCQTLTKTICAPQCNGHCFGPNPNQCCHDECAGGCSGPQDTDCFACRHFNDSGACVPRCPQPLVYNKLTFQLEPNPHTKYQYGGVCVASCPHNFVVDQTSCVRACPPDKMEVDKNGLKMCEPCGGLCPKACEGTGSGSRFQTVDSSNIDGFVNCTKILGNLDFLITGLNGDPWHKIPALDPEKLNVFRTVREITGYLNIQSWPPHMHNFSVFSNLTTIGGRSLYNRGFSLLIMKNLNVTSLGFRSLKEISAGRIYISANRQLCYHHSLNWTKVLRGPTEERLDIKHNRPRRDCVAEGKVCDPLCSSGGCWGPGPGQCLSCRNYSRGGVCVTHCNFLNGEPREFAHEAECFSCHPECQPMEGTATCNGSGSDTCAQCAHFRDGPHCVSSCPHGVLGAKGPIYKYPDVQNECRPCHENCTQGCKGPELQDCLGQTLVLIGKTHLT

Target: ErbB3 (UniProt P21860)
Experiment: MRD screen, Example 48

| Binder | binding |
| --- | --- |
| ADSWCHTLYWQLLHCVNQE [EGC729] | binds |
| ADSWCHTLYWQLLHCVSQE [EGC736] | binds |
| DQVRCPFQNPVWWSHCMYLL [EGC737] | binds |
| DQVRCPFQNPVWWSHCMYLL [EGC745] | binds |
| DQVRCPFQNPVWWSHCMYLL [EGC746] | binds |
| YTKHCQRLPTYKICNLFM [EGC752] | binds |
| DQVRCPFQNPVWWSHCMYLL [EGC754] | binds |
| ADSWCHTLYWQLQHCLSQE [EGC755] | binds |
| DQVRCPFQNPVWWSHCMYLL [EGC759] | binds |
| DQVRCPFQNPVWWSHCMYLL [EGC763] | binds |
| DQVRCPFQNPVWWSHCMYLL [EGC764] | binds |
| TDSWCHTLYWQLHHCAILE [EGC765] | binds |
| DQVRCPFQNPVWWSHCMYLL [EGC770] | binds |
| YQVTCPFLNPPWWSHCMYLL [EGC771] | binds |
| DQVRCPFQNPVWWSHCMYLL [EGC772] | binds |
| HRAPCFSCTACRQPCFSLT [EGC776] | binds |
| YQVTCPFFNPLWWSHCMYLL [EGC777] | binds |
| SEPYCPFLNPTWKSQCIART [EGC783] | binds |
| YEVQCPFQNPIWWKHCMDLI [EGC789] | binds |
| ESCWTWDHWYQYWVPQRCDP [EGC791] | binds |
| ANSWCHTLYWQLHHCEILE [EGC792] | binds |
| QACNFTSLGWYQEFYCLR [EGC793] | binds |
| WACRWEWHAAWQKWDEFCVE [EGC794] | binds |

| Binder | binding |
| --- | --- |
| AYCYRSIISRNSTCSAL [EGC795] | binds |
| VYCFLNFKTMNYAGEFWCRH [EGC796] | binds |
| SWCMWYYESTYSAPYYYCSV [EGC797] | binds |
| SQCHWWHEPYGMFQTEICLW [EGC798] | binds |
| GLHGCQYVQMFFHFCAPKT [EGC799] | binds |
| WQHVCWQDWYSWVCTSGY [EGC800] | binds |
| PWRGCWWDPWQPWDCVPFF [EGC801] | binds |
| QERLCRQIWQHYCVRYM [EGC802] | binds |
| QPRECNYVPAWYCHYYS [EGC803] | binds |
| VYQYHCDWYTCLFRHT [EGC804] | binds |
| FQGHCALFPTDWICTLKS [EGC806] | binds |
| QMCHMEWHNHVYWQVCHW [EGC807] | binds |
| WMRQCHLETECQRAS [EGC808] | binds |
| SAVACFHPPYFFICVASG [EGC809] | binds |
| LRRRCHSRFMQCSNPG [EGC810] | binds |
| GQTWCHWGMYCISTT [EGC811] | binds |
| WEYQCEWGYSYKPQCWLSA [EGC818] | binds |
| LPLTCWVLEWHEWLACVSYD [EGC820] | binds |
| WSYSCVFLPWMYHMCYLET [EGC822] | binds |
| WFYQCWQSPWHTECSWVN [EGC823] | binds |
| RDQPCWYKIMTGCLCMP [EGC824] | binds |
| LPPSWCVRGECSWLLL [EGC825] | binds |
| DESDCKQLPICHGHCLVPL [EGC826] | binds |

| Binder | binding |
| --- | --- |
| YQVFCEWSYWEYHCISNQ [EGC827] | binds |
| VQHHCLYRQHSYRECVRHY [EGC828] | binds |
| YIDCVPVLPGFYLPQLG [EGC829] | binds |
| WHQACEYQYYNWECSMGW [EGC831] | binds |
| ETFSCYVFPFFYECYSTP [EGC832] | binds |
| WTNLFCWGPLCKCLQQ [EGC836] | binds |
| YQVMCLHQPFVSFCHYET [EGC839] | binds |
| GTHWCRYYPSYAECYVWL [EGC840] | binds |
| TWLCDCSYWGCWWELG [EGC841] | binds |
| LWVGCYIPPWTEWCPIAW [EGC842] | binds |
| VWLMCWHYIFCPSKL [EGC844] | binds |
| PEYLCWVYPYAPQCWDLV [EGC845] | binds |
| VEHLCSKIPFWMFSAWPG [EGC846] | binds |
| WRVICMARPTGEQCEWVW [EGC851] | binds |
| DWSKCIQFSLPHDHCLMFM [EGC854] | binds |
| SRWECAWIVGYHHWDCRWLF [EGC856] | binds |
| SMEYCFWYHYCQLGV [EGC857] | binds |
| IFVMCEDSWPVPFCFSNR [EGC858] | binds |
| VEWMCYAYPFDPECYYNW [EGC859] | binds |
| DEHLCSISRSGMSFAWAG [EGC861] | binds |
| ASEPYCPFLNPVWKEQCIARL [EGC862] | binds |
| PREPYCPFHNPIWKNQCIART [EGC863] | binds |
| ESEPYCPFLNPIWKAHCIART [EGC865] | binds |
